The supplement of paper PMC10849652
This is one part of the list.

By UniProt entry, the sequences of proteins in these tests, tags left out. Where a name states a change or a piece, a line headed by the entry shows the natural chain unless it says otherwise.
UniProt Q9H9F9, whole entry, looked up: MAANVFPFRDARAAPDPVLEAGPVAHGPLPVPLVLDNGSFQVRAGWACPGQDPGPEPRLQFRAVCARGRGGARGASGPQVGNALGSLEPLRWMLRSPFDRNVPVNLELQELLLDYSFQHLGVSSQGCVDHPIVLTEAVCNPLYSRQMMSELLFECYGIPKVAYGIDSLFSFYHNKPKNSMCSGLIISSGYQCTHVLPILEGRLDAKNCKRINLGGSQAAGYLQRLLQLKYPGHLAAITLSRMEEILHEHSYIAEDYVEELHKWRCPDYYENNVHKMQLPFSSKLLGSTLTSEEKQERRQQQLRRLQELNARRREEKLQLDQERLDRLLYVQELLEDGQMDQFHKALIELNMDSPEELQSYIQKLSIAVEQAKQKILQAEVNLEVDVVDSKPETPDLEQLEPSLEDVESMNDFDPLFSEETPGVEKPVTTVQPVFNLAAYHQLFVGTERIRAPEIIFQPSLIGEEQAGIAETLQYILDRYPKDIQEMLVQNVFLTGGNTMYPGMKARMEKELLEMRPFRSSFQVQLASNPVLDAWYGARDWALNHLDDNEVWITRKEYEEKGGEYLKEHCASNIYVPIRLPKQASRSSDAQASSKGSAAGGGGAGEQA
UniProt O15120: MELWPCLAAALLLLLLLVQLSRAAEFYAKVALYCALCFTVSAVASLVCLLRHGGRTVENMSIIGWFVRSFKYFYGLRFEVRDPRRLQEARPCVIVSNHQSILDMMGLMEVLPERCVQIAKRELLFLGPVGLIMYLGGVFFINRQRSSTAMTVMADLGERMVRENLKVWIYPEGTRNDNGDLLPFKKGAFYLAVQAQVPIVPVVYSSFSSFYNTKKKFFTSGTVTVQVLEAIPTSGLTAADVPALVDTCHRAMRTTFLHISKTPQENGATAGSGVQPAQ
UniProt Q63HM1: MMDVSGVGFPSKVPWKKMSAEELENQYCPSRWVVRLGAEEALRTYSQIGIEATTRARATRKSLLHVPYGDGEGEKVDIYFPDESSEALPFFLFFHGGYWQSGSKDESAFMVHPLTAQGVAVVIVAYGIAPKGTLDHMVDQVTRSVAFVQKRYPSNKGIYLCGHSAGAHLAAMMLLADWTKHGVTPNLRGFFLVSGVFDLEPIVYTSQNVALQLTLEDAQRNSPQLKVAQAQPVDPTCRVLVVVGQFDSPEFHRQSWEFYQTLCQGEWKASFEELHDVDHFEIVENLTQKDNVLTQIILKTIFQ
UniProt Q3LIE5: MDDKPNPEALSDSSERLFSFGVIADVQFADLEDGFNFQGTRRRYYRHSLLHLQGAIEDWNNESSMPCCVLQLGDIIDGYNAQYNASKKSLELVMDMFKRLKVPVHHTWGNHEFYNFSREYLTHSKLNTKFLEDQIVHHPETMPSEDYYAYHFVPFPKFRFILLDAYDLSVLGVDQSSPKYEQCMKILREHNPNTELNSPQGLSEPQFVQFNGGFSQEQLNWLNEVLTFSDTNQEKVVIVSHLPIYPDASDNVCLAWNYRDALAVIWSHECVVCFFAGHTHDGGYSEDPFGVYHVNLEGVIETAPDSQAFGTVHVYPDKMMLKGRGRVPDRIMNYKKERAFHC
UniProt Q9NRZ5: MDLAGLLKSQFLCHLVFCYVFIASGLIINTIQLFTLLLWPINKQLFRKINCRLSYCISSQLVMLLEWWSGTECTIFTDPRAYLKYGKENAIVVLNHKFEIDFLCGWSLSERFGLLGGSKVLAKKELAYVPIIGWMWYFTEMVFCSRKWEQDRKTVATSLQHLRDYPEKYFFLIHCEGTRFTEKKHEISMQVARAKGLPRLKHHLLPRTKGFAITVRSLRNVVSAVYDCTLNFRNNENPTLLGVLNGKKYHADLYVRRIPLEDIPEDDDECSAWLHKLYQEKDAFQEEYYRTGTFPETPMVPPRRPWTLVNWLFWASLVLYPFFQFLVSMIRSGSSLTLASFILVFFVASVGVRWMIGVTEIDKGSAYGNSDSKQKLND
UniProt Q9UEY8: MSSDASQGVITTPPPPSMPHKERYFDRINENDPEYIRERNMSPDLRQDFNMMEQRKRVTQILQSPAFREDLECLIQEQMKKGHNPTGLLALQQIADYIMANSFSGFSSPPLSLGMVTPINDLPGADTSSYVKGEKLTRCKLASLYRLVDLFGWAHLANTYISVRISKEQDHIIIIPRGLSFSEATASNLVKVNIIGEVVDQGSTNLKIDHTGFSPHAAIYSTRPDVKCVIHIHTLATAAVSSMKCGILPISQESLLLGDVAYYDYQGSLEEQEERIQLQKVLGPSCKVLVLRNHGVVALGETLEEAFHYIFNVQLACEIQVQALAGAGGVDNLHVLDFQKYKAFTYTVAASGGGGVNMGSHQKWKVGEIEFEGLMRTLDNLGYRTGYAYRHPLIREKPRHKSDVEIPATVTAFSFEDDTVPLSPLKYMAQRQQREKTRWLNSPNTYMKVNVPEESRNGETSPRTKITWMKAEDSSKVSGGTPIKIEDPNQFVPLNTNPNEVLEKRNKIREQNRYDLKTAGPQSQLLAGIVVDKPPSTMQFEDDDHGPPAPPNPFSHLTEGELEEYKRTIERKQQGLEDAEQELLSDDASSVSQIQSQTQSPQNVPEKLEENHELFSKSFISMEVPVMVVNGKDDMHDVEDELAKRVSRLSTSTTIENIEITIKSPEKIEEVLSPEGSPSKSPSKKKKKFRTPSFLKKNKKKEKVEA
UniProt O15254: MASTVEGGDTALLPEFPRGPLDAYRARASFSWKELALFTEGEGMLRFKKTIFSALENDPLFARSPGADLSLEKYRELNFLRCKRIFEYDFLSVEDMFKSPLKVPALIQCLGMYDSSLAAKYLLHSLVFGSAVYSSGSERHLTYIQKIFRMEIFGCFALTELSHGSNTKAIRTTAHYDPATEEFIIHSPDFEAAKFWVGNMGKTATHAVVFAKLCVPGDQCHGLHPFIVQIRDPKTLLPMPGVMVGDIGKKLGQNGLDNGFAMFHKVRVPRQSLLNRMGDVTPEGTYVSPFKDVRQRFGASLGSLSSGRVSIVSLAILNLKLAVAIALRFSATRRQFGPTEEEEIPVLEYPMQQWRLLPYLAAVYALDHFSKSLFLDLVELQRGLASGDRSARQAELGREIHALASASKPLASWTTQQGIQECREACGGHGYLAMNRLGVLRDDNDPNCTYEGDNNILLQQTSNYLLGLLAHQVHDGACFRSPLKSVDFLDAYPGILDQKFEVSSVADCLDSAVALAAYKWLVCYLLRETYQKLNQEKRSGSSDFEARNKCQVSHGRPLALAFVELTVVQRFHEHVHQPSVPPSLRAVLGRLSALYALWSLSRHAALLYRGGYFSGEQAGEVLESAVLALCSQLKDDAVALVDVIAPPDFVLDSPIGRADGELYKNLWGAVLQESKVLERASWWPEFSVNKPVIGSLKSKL
UniProt Q04771: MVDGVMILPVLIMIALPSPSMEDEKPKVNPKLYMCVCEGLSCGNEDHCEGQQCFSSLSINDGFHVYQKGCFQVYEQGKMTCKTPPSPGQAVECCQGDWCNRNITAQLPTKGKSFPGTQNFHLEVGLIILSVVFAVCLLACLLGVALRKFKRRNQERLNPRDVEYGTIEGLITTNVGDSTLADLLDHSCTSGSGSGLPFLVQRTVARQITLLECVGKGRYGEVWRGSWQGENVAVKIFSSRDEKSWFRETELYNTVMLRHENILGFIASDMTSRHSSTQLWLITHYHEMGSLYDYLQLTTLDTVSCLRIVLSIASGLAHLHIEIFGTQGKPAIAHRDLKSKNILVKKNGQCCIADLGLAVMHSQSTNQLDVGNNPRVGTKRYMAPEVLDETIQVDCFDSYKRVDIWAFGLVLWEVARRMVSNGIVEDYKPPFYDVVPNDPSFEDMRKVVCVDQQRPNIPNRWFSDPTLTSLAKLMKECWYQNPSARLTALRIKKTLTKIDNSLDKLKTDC
UniProt P78536: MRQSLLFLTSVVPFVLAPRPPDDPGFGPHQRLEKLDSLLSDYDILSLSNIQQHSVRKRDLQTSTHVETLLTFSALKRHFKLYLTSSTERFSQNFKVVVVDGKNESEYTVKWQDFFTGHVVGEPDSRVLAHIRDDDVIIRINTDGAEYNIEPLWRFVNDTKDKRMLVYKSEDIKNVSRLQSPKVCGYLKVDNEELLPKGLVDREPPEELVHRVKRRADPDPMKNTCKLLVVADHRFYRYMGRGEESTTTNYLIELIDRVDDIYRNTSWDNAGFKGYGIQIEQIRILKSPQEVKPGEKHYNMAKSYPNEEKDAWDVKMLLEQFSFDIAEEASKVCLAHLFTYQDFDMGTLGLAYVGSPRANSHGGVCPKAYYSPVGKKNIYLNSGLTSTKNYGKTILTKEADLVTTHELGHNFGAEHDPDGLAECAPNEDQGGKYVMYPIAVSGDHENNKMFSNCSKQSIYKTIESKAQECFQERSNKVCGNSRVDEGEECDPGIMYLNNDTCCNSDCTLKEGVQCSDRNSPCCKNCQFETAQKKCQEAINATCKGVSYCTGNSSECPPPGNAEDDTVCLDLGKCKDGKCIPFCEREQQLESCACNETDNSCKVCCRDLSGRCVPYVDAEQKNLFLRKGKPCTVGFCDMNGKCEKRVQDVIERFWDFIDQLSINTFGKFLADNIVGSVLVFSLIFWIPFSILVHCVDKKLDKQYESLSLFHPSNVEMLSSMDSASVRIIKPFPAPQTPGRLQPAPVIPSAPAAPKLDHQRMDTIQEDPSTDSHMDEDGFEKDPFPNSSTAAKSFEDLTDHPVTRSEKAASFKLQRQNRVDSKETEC
UniProt Q96A54: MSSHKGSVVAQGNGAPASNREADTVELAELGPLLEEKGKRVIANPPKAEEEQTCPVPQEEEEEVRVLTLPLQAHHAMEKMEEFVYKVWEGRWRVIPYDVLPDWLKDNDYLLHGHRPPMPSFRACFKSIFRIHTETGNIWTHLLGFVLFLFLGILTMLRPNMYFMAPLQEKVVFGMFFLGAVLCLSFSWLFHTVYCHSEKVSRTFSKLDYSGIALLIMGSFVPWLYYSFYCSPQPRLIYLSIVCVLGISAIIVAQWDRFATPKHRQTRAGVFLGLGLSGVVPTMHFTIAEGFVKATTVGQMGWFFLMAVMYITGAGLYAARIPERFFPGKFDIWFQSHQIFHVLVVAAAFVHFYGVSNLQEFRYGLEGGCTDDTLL
UniProt O60266: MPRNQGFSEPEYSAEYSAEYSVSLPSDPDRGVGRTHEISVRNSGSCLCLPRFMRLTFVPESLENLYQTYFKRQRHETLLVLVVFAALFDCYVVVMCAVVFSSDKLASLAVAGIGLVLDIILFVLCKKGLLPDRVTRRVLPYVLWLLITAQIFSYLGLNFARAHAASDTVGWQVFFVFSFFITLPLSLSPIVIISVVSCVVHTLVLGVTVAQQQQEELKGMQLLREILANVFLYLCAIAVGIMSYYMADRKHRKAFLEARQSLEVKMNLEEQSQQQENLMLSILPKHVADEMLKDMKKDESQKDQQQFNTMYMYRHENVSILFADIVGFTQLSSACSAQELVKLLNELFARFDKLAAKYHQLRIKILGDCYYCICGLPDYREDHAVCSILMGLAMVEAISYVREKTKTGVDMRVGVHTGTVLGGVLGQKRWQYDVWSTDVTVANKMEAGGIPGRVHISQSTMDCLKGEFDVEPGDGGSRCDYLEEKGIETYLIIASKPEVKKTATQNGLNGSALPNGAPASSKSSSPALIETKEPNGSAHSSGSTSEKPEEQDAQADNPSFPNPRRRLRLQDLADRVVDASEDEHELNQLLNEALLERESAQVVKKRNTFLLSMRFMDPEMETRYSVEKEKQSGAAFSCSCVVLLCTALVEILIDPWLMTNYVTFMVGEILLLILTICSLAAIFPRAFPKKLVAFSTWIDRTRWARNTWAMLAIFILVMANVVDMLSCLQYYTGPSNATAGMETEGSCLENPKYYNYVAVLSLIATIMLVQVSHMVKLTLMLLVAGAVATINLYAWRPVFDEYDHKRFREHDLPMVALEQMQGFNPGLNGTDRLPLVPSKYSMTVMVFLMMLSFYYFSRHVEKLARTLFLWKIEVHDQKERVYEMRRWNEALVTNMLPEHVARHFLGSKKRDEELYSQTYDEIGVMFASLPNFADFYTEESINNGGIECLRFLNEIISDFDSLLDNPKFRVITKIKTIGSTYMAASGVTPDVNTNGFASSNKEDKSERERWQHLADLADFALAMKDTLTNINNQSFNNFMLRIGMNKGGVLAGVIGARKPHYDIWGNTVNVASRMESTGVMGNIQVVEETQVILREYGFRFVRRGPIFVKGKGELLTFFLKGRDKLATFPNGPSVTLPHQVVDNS
UniProt O60218, whole entry, looked up: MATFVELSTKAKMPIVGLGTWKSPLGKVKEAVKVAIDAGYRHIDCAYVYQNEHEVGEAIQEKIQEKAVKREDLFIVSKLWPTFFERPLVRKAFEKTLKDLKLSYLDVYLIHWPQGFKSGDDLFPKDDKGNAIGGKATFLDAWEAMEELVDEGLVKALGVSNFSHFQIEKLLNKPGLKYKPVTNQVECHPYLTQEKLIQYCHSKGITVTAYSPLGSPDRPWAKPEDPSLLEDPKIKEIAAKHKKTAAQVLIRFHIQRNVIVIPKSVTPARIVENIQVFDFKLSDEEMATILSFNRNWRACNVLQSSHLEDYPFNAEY

How the values were obtained:
Test in all cases: log2 fold change, soluble protein after heating vs DMSO (PISA); higher = thermal stabilisation; K562 lysate, 10 uM; active = over 0.2 and 3.5 SD of the protein, either way, in both replicates (recomputed)
[1] = compound: CS(=O)(=O)CCNCc1ccc(-c2ccc3ncnc(Nc4ccc(OCc5cccc(F)c5)c(Cl)c4)c3c2)o1 [lapatinib]
Method in brief: (§1)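 K562 pellets were dounce-homogenised in PBS pH 7.4 with 1 mM MgCl2, and the crude extract at 1 mg/mL protein was treated with 10 μM compound for 30 min. Aliquots were heated for 3 min across 48°C-58°C, pooled, and brought to 0.5% NP-40 at 4°C; soluble protein was the supernatant after 21,000xg for 90 min. Soluble protein was quantified by TMTpro 16plex LC-MS/MS with channel sums equalised, and reported as log2 fold change in thermal stability against DMSO controls, with values from duplicates.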

[2] = compound: C[C@H](Nc1ncnc2nc[nH]c12)c1cc2cccc(Cl)c2c(=O)n1-c1ccccc1 [duvelisib]
Method in brief: as §1

[3] = compound: Cc1cc(Nc2cc(N3CCN(C)CC3)nc(Sc3ccc(NC(=O)C4CC4)cc3)n2)n[nH]1 [tozasertib]
Method in brief: as §1

[4] = compound: Cc1cn(-c2cc(NC(=O)c3ccc(C)c(Nc4nccc(-c5cccnc5)n4)c3)cc(C(F)(F)F)c2)cn1 [nilotinib]
Method in brief: as §1

[5] = compound: Cc1nc(Nc2n[nH]c3c2CN(C(=O)N[C@H](CN(C)C)c2ccccc2)C3(C)C)c2sccc2n1
Method in brief: as §1

[6] = compound: Cc1nc(Nc2ncc(C(=O)Nc3c(C)cccc3Cl)s2)cc(N2CCN(CCO)CC2)n1 [dasatinib]
Method in brief: as §1

[7] = compound: Cc1ncc(-c2ccnc(Nc3ccc(S(C)(=O)=O)cc3)n2)n1C(C)C
Method in brief: as §1

[8] = compound: Cn1cc(-c2ccc3c(c2)CCN3C(=O)Cc2cccc(C(F)(F)F)c2)c2c(N)ncnc21
Method in brief: as §1

[9] = compound: Cn1cncc1[C@@](N)(c1ccc(Cl)cc1)c1ccc2c(c1)c(-c1cccc(Cl)c1)cc(=O)n2C [tipifarnib]
Method in brief: as §1

[10] = compound: NC(=O)c1cnc(N[C@@H]2CCCC[C@@H]2N)nc1Nc1cccc(-n2nccn2)c1
Method in brief: as §1

[11] = compound: NC1(c2ccc(-c3nc4ccn5c(=O)[nH]nc5c4cc3-c3ccccc3)cc2)CCC1
Method in brief: as §1

[12] = compound: CS(=O)(=O)N1CCN(Cc2cc3nc(-c4cccc5[nH]ncc45)nc(N4CCOCC4)c3s2)CC1 [pictilisib]
Method in brief: as §1

[13] = compound: C[C@@H](Oc1cc(-c2cnn(C3CCNCC3)c2)cnc1N)c1c(Cl)ccc(F)c1Cl [crizotinib]
Method in brief: as §1

[14] = compound: C[C@H](C1=CC=C(C=C1)C(=O)NC2=C3C=CNC3=NC=C2)N
Method in brief: as §1

[15] = compound: Cc1cc(Nc2cc(CN3CCOCC3)c3nc(C)c(Cc4ccc(Cl)cc4F)n3n2)n[nH]1 [gandotinib]
Method in brief: as §1

[16] = compound: Cc1ccc(-n2nc(C(C)(C)C)cc2NC(=O)Nc2ccc(OCCN3CCOCC3)c3ccccc23)cc1 [doramapimod]
Method in brief: as §1

[17] = compound: Cc1ccc(NC(=O)c2ccc(CN3CC[C@H](N(C)C)C3)c(C(F)(F)F)c2)cc1Nc1nccc(-c2cncnc2)n1 [bafetinib]
Method in brief: as §1

[18] = compound: Cc1cccc(CC(=O)N2CCc3c2ccc(-c2cn(C)c4ncnc(N)c24)c3F)n1
Method in brief: as §1

[19] = compound: Cn1cc(CNCC2CCN(c3ncc(C(=O)NO)cn3)CC2)c2ccccc21 [quisinostat]
Method in brief: as §1

[20] = compound: NC(=O)Nc1cc(-c2cccc(F)c2)sc1C(=O)N[C@H]1CCCNC1
Method in brief: as §1

Measured: log2 fold change

ACTR8 (UniProt Q9H981)
inactive: [1] -0.056 | [2] -0.086 | [3] 0.044 | [4] -0.032 | [5] -0.055 | [6] -0.339 | [7] 0.036 | [8] 0.09 | [9] -0.114 | [10] 0.035 | [11] 0.17

ADAD1 (UniProt Q96M93)
inactive: [1] -0.081 | [2] 0.042 | [3] 0.051 | [6] -0.048 | [8] 0.037 | [10] 0.003

ACTR5 (UniProt Q9H9F9)
inactive: [12] -0.002 | [13] 0.069 | [14] 0.13 | [2] 0.071 | [15] -0.03 | [3] -0.016 | [16] 0.111 | [17] -0.109 | [18] -0.05 | [4] 0 | [5] 0 | [6] -0.072 | [7] 0.047 | [8] 0.029 | [19] 0.085 | [9] -0.016 | [20] -0.107 | [11] 0.02

ACTN4 (UniProt H7C144)
inactive: [2] -0.078 | [6] -0.052 | [8] -0.034

ACTB, A0A2R8YGF8
inactive: [12] -0.107 | [14] -0.222 | [15] -0.108 | [17] 0.313 | [18] 0.01

AJUBA (UniProt Q96IF1)
inactive: [13] 0.023 | [2] -0.12 | [16] 0.167 | [6] 0.064 | [8] -0.129 | [19] -0.097 | [20] 0.02

ACSS3 (UniProt Q9H6R3)
inactive: [12] -0.15 | [17] 0.112

AGPAT2 (UniProt O15120)
inactive: [13] -0.097 | [14] 0.006 | [15] -0.145 | [3] 0.048 | [16] 0.1 | [18] 0.021 | [4] -0.044 | [5] 0.046 | [7] -0.037 | [19] 0.006 | [9] 0.029 | [20] 0.018 | [11] 0.02

AHI1 (UniProt Q8N157)
inactive: [3] 0.053 | [11] 0.188

AFMID isoform 2 (UniProt Q63HM1)
inactive: [13] -0.051 | [14] -0.078 | [15] -0.008 | [3] 0.023 | [16] 0.049 | [18] 0.095 | [19] 0.033 | [20] 0.03

AHCTF1 isoform 2 (UniProt Q8WYP5)
inactive: [1] -0.1 | [14] -0.04 | [15] 0.118 | [18] 0.119 | [10] 0.067 | [11] -0.03

ADD2 isoform 9 (UniProt P35612)
inactive: [1] 0.163 | [14] -0.168 | [2] -0.142 | [15] 0.133 | [3] 0.071 | [18] -0.025 | [4] 0.174 | [5] -0.108 | [6] -0.002 | [7] 0.492 | [8] -0.085 | [9] -0.059 | [10] -0.184 | [11] 0.353

ADCY7 (UniProt P51828)
inactive: [2] -0.05 | [4] 0.111 | [5] 0.02 | [6] 0.079 | [7] -0.064 | [8] 0.063 | [9] -0.178 | [11] 0.213

Random excerpt: 3 records from the list.
AHCTF1 isoform 2 (UniProt Q8WYP5)
inactive: [1] -0.1 | [14] -0.04 | [15] 0.118 | [18] 0.119 | [10] 0.067 | [11] -0.03

AGPAT2 (UniProt O15120)
inactive: [13] -0.097 | [14] 0.006 | [15] -0.145 | [3] 0.048 | [16] 0.1 | [18] 0.021 | [4] -0.044 | [5] 0.046 | [7] -0.037 | [19] 0.006 | [9] 0.029 | [20] 0.018 | [11] 0.02

AHI1 (UniProt Q8N157)
inactive: [3] 0.053 | [11] 0.188

Following part

ADCK1 (UniProt Q86TW2)
inactive: [14] 0.157 | [15] 0.19 | [3] -0.076 | [18] 0.1

ADPRM (UniProt Q3LIE5)
inactive: [12] 0.09 | [13] -0.017 | [14] -0.122 | [15] 0.08 | [3] 0.065 | [16] 0.117 | [17] -0.201 | [18] 0.149 | [19] 0.009 | [20] 0.058

AGPAT4 (UniProt Q9NRZ5)
inactive: [12] 0.005 | [13] -0.035 | [14] -0.273 | [15] 0.019 | [3] 0.197 | [16] -0.024 | [17] -0.028 | [18] 0.128 | [19] -0.138 | [20] 0.046 | [11] 0.042

ADD3 isoform 2 (UniProt Q9UEY8)
inactive: [13] 0.027 | [16] -0.009 | [19] -0.065 | [20] 0.055

AFDN (UniProt H0Y948)
inactive: [13] 0.249 | [16] -0.152 | [19] 0.102 | [20] -0.019

AFM (UniProt P43652)
inactive: [14] 0.012 | [15] -0.032 | [3] 0.057 | [18] -0.003

ACOX3 (UniProt O15254)
inactive: [12] -0.204 | [2] 0.006 | [3] -0.012 | [17] 0.162 | [6] -0.065 | [8] -0.047

ADAT1 (UniProt Q9BUB4)
inactive: [12] -0.091 | [17] 0.124

ACVR1 (UniProt Q04771)
inactive: [12] 0.006 | [14] 0.103 | [2] -0.015 | [15] 0.643 | [17] 0.007 | [18] -0.294 | [4] -0.11 | [5] 0.013 | [6] 0.258 | [7] 0.476 | [8] -0.046 | [9] -0.309

ACVR2B (UniProt Q13705)
inactive: [11] -0.151

AGO2 (UniProt E5RJY2)
inactive: [1] 0.089 | [14] -0.386 | [15] 0.131 | [18] 0.138 | [4] -0.36 | [5] 0.399 | [7] 0.155 | [9] 0.099 | [10] -0.025

ACP5 (UniProt P13686)
inactive: [11] -0.087

AFDN (UniProt A8MQ02)
inactive: [1] -0.131 | [10] -0.205

AKR1C1 (UniProt Q04828)
inactive: [1] -0.176 | [14] 0.12 | [2] 0.037 | [15] -0.095 | [3] -0.019 | [18] -0.227 | [6] 0.057 | [8] -0.028 | [10] 0.094 | [11] 0.011

ACTB, A0A2R8YEA7
inactive: [1] 0.022 | [14] -0.128 | [15] 0.083 | [18] -0.172 | [4] 0.171 | [5] -0.194 | [7] 0.173 | [9] -0.069 | [10] -0.206

AHDC1 (UniProt Q5TGY3)
inactive: [12] -0.044 | [17] -0.151

ADAM17 (UniProt P78536)
inactive: [12] 0.032 | [13] 0.051 | [14] 0.008 | [2] 0.024 | [15] 0.054 | [3] -0.015 | [16] -0.06 | [17] 0.019 | [18] 0.099 | [4] -0.093 | [5] -0.151 | [6] -0.032 | [7] 0.021 | [8] 0.054 | [19] 0.01 | [9] 0.039 | [20] 0.002 | [11] -0.012

ACTG1 (UniProt K7EM38)
inactive: [1] -0.08 | [3] 0.207 | [10] 0.171

ADIPOR1 (UniProt Q96A54)
inactive: [12] 0.002 | [13] -0.009 | [14] 0.091 | [2] 0.004 | [15] -0.097 | [3] -0.004 | [16] -0.057 | [17] -0.281 | [18] -0.025 | [4] -0.022 | [5] -0.004 | [6] -0.042 | [7] -0.212 | [8] 0.072 | [19] 0.074 | [9] 0.099 | [20] -0.019 | [11] -0.018

ADCY3 (UniProt O60266)
inactive: [2] 0.055 | [6] -0.002 | [8] 0.034 | [11] 0.359

AKR1B10 (UniProt O60218)
inactive: [2] -0.023 | [6] 2.04 | [8] -0.042
